Results on two substances are retold here after patent US12268757B2 (USTAV ORGANICKE CHEMIE A BIOCHEMIE AV CR V.V.I., priority 2019, dated 2025).

Data set [1] can be described thus: general procedure: Fmoc solid-phase peptide synthesis; resin (20 mg, 4 umol); HATU/DIPEA; HATU/N-methylmorpholine. Particulars: whole synthesis, scale 4 umol.
Data set [2] can be described thus: general procedure: Fmoc solid-phase peptide synthesis; Rink Amide resin (10 mg, 2 umol); HATU/DIPEA; HATU/N-methylmorpholine. The conditions noted are these: whole synthesis, scale 2 umol.

In the case of tetrapeptide Gly-Phe-(Gd-6)-Gly-NH2, the isolated mass in data set [1] is listed as 0.1 mg.

In data set [2], “Pentapeptide (12)-Gly-Phe-(Gd-6)-Gly-NH2” returned an isolated mass of 0.3 mg.
